This is one part of the list.
B1: il2ra_site1_2b5i_sap_4_mot_HHH_b1_04602_000000166_0001_1_19_H_._HHH_b1_05136_af2_0001_0000100001_0000001_0_0001_af2pred_dldesign_0_af2pred (protein)
chain: SSSSSSEAERIAEEAIEEAKKLKDVREALKLLEAAHKEVSALGDDEAADRIEEFAKELLKSSSSS
B2: il2ra_site2_2erj_sap_15_mot_ems_3hC_936_0002_000000155_0001_4_19_H_._HHH_b1_03120_0001_0000500021_0000001_0_0001 (protein)
chain: SSSSSEEEAQELYEEFEELLEKGDDHALSEVLARLMELAKKYRDELAHRLAWELLRLNLNSSSSS
B3: il2ra_site2_2erj_normal_mot_af86707857d369f3e1d85dcabc5f9321_0001_000000171_0001_14_29_H_._HHH_b2_02620_0001_0000200010_0000001_0_af2pred_0001_af2pred (protein)
chain: SSSSDLEEEVRRLLEEIEELIKRGDEEEALNLLLEAIELAAKANNEELLEEIARLARELQRSSSS
B4: il2ra_site2_3nfp_normal_mot_HHH_b2_07946_000000046_0001_20_36_H_._HHH_b2_02452_af2_0001_0000100002_0000001_0 (protein)
chain: SSSSSSEEEEERVEELLEEAKKIEDPEEVKKLLREATNLAYKLNNFELFALVADALSQLYSSSSS
B5: il2ra_site1_2b5i_sap_20_mot_HHH_b1_01934_af2_000000023_0001_42_56_H_._317e649a6280ec284eb7dfe5badee235_0001_af2_0001_0000600013_0000001_0_0001_af2pred_dldesign_ … (protein)
chain: SSSSSKEEIKKEAEELIEELKKKGYNLPLRILEFALKEIEETNSEKYYEQLKKLIEKIKKSSSSS
B6: il2ra_site2_2erj_normal_mot_39ed66e5fba071e4f274ea7f2cf018e6_0001_000000286_0001_17_31_H_._HHH_b2_03101_af2_0001_0000900014_0000001_0_af2pred_0001_af2pred (protein)
chain: SSSSDLEERLEETVEELVKEFNLSEEQKKLLEAIAELLLEAGFSEELAEEWLRRIAERLGSSSSS
B7: il2ra_site2_3nfp_sap_16_mot_HHH_b1_06613_af2_000000098_0001_23_40_H_._HHH_b2_05266_af2_0001_0000600014_0000001_1_0001 (protein)
chain: SSSSDEEAEELREEAEKAAEEGDPEEALELLLEAASIAWRLNDEELFAKISELAHEILRRRSSSS
B8: il2ra_site1_1z92_sap_12_mot_HHH_b1_08207_af2_000000294_0001_43_57_H_._495ec863fae791885bcf86a35e6e9113_0001_af2_0001_0000500015_0000001_0_0001_af2pred_0001_af2p … (protein)
chain: SSSSSLEHSLRLAVEILVKLAGLSEEQEKELEELVRELVERGVSFHEALRILSRLAHELLSSSSS
B9: il2ra_site2_3nfp_normal_mot_HHH_b2_06150_000000217_0001_39_53_H_._HHH_b1_06048_0001_0001100050_0000001_0 (protein)
chain: SSSSDEEEESERLVERLEELLKEGDEERFKKVLQEATHFAFETRDSELFFLLAELLFRIESSSSS
B10: il2ra_site1_3nfp_normal_mot_HHH_b2_02342_000000249_0001_42_55_H_._HEEHE_0633_0001_0000400008_0000001_0 (protein)
chain: DLERDAKHVVKAVAEAARLPSVEVEVHNGTIHVEIEGDDEAARRAKEALELFARALGIPIEVEIE
B11: il2ra_site1_3nfp_sap_6_mot_HHH_b2_00128_000000255_0001_39_54_H_._HHH_b2_00233_0001_0001400017_0000001_0_0001_af2pred_0001_af2pred_1 (protein)
chain: SSSSNEVARRVRELLREALKLREEGNPEEARKLLEEAKELAEEANSPNARLMVRHALELINSSSS
B12: il2ra_site1_1z92_sap_22_mot_HHH_b1_04602_000000153_0001_1_19_H_._HHH_b1_00136_0001_0000300046_0000001_0_0001_af2pred_0001_af2pred_1 (protein)
chain: SSSSSDLEEIAKELVEELQREFNLDEAAKRDLEKFAEFLVKKGVSPELVEKNLRYVVRVTSSSSS
B13: il2ra_site1_2b5i_sap_9_mot_HHH_b1_00095_000000044_0001_1_14_H_._HHH_b1_03479_af2_0001_0000200014_0000001_0_0001_af2pred_0001_af2pred_1 (protein)
chain: SSSSSSDEKRRVRELLERANHVDDDEEVEKILEEAEEIAREANNPALERFVEAALRIASSSSSSS
B14: il2ra_site2_3nfp_sap_18_mot_HHH_b1_04032_000000208_0001_43_56_H_._HHH_b2_05228_0001_0000500021_0000001_0_0001_af2pred_0001_af2pred_swapped (protein)
chain: SSSSDYEEQVRELLERAEELRERGNPEEAERLLRRAASLAAEARDHELFAEVSEVLEKLGSSSSS
B15: il2ra_site1_2b5i_sap_9_mot_HHH_b2_06931_af2_000000221_0001_1_17_H_._HHH_b2_03102_af2_0001_0000200030_0000001_0_0001_af2pred_dldesign_0_af2pred (protein)
chain: SSSSSSSDKRALMARLDELFKAGKKEELEKLLKEAEEYAKKNKDKALLAYLKNIKELLSSSSSSS
B16: il2ra_site1_2b5i_sap_16_mot_HHH_b2_00318_000000002_0001_42_56_H_._HHH_b2_02760_0001_0000400035_0000001_1_0001_af2pred_dldesign_0_af2pred (protein)
chain: SSSSSSDFLEVLRRLEEALAAGRLEEARRLLEELREIAEKRKSPRLLKIVEMAREALESSSSSSS
B17: il2ra_site2_3nfp_normal_mot_HHH_b2_02437_000000052_0001_42_56_H_._HHH_b2_05748_0001_0000200030_0000001_0_af2pred_0001_af2pred_1 (protein)
chain: SSSSSEEVEEEVERLLEEAKRIEDEFEVFAVLADAAALAIENNNPELVRLVEKVSRELLGSSSSS
B18: il2ra_site2_3nfp_sap_15_mot_HHH_b2_08209_000000146_0001_1_18_H_._HHH_b1_00223_0001_0000100006_0000001_0_0001 (protein)
chain: SSSSDKAEEYLRIAEELIEEAREAGDEESARKMLEAAILMAEDLGDEEALEELRRILEELSSSSS

molecular target: il2ra, P01589; experiment: yeast display titration

Apparent Kd, inactive:
B1 no binding seen
B2 no binding seen
B3 no binding seen
B4 no binding seen
B5 no binding seen
B6 no binding seen
B7 no binding seen
B8 no binding seen
B9 no binding seen
B10 no binding seen
B11 no binding seen
B12 no binding seen
B13 no binding seen
B14 no binding seen
B15 no binding seen
B16 no binding seen
B17 no binding seen
B18 no binding seen

Reprinted at random: two entries already listed, in no set order.
Apparent Kd, inactive:
B18 no binding seen
B11 no binding seen

— paper PMC10163288
